Where a chain is given by its changes, count along the chain named. No constants are given. Whether binding was seen depends on the method and setting. In cells and extracts the contact can be indirect. Some entries that bind do so weakly or less than the wild type. Where a sequence is shown, tags or fusion partners need not be part of it.
Experiments:
[1] = target: T1, Flag-tagged human NAB1 (NGFI-A binding protein 1), wild type (human) (UniProt Q13506); experiment: co-IP; Flag-NAB1 (WT or K480R) and HA-HDAC2 co-transfected in HEK293T cells; IP with anti-Flag M2 beads; Western blot with anti-Flag and anti-HA
T1 sequence: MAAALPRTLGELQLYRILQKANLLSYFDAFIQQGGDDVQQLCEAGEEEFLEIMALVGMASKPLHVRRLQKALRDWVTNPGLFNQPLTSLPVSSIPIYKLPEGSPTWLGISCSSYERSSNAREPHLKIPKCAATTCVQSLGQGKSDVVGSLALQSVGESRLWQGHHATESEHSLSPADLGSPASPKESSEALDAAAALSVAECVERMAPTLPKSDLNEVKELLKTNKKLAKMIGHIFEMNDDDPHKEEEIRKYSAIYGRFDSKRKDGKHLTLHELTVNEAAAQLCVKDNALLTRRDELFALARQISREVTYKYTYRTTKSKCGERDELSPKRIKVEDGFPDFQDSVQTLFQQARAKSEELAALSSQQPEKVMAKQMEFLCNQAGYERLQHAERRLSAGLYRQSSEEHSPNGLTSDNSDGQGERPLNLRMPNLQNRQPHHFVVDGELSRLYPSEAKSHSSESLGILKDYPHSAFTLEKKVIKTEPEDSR

Amino acid sequences for entries named in this document (tags omitted).
UniProt Q92769: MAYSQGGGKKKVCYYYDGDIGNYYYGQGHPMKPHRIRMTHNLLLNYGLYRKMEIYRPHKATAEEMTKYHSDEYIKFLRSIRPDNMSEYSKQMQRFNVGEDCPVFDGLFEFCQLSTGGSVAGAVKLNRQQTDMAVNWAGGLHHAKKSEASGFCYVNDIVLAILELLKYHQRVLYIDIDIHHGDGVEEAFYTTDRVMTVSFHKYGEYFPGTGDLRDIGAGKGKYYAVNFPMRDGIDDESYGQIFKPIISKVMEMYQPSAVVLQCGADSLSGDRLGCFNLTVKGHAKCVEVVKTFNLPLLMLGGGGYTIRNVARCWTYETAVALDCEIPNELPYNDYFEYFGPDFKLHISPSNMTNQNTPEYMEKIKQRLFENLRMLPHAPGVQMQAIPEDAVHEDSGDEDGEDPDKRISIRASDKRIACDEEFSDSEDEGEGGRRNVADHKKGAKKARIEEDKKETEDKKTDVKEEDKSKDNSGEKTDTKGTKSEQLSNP

[2] = target: T2, Flag-tagged human NAB1 K480R mutant (human) (UniProt Q13506); experiment: as above
T2 sequence: T1 sequence with K480R

- binding [1]: binds
- binding [2]: binds
Substance: HA-HDAC2 (from UniProt Q92769 1-488)
